The labels stand for the following.
B1: UIF (endogenous) (protein, UniProt Q96QD9 1-318)
chain: MNRFGTRLVGATATSSPPPKARSNENLDKIDMSLDDIIKLNRKEGKKQNFPRLNRRLLQQSGAQQFRMRVRWGIQQNSGFGKTSLNRRGRVMPGKRRPNGVITGLAARKTTGIRKGISPMNRPPLSDKNIEQYFPVLKRKANLLRQNEGQRKPVAVLKRPSQLSRKNNIPANFTRSGNKLNHQKDTRQATFLFRRGLKVQAQLNTEQLLDDVVAKRTRQWRTSTTNGGILTVSIDNPGAVQCPVTQKPRLTRTAVPSFLTKREQSDVKKVPKGVPLQFDINSVGKQTGMTLNERFGILKEQRATLTYNKGGSRFVTVG
B2: NCBP3 (endogenous) (protein, UniProt Q53F19 1-620)
chain: MAAVRGLRVSVKAEAPAGPALGLPSPEAESGVDRGEPEPMEVEEGELEIVPVRRSLKELIPDTSRRYENKAGSFITGIDVTSKEAIEKKEQRAKRFHFRSEVNLAQRNVALDRDMMKKAIPKVRLETIYICGVDEMSTQDVFSYFKEYPPAHIEWLDDTSCNVVWLDEMTATRALINMSSLPAQDKIRSRDASEDKSAEKRKKDKQEDSSDDDEAEEGEVEDENSSDVELDTLSQVEEESLLRNDLRPANKLAKGNRLFMRFATKDDKKELGAARRSQYYMKYGNPNYGGMKGILSNSWKRRYHSRRIQRDVIKKRALIGDDVGLTSYKHRHSGLVNVPEEPIEEEEEEEEEEEEEEEEDQDMDADDRVVVEYHEELPALKQPRERSASRRSSASSSDSDEMDYDLELKMISTPSPKKSMKMTMYADEVESQLKNIRNSMRADSVSSSNIKNRIGNKLPPEKFADVRHLLDEKRQHSRPRPPVSSTKSDIRQRLGKRPHSPEKAFSSNPVVRREPSSDVHSRLGVPRQDSKGLYADTREKKSGNLWTRLGSAPKTKEKNTKKVDHRAPGAEEDDSELQRAWGALIKEKEQSRQKKSRLDNLPSLQIEVSRESSSGSEAES
B3: RBM27 (endogenous) (protein, UniProt Q9P2N5 1-1060)
chain: MLIEDVDALKSWLAKLLEPICDADPSALANYVVALVKKDKPEKELKAFCADQLDVFLQKETSGFVDKLFESLYTKNYLPLLEPVKPEPKPLVQEKEEIKEEVFQEPAEEERDGRKKKYPSPQKTRSESSERRTREKKREDGKWRDYDRYYERNELYREKYDWRRGRSKSRSKSRGLSRSRSRSRGRSKDRDPNRNVEHRERSKFKSERNDLESSYVPVSAPPPNSSEQYSSGAQSIPSTVTVIAPAHHSENTTESWSNYYNNHSSSNSFGRNLPPKRRCRDYDERGFCVLGDLCQFDHGNDPLVVDEVALPSMIPFPPPPPGLPPPPPPGMLMPPMPGPGPGPGPGPGPGPGPGPGPGHSMRLPVPQGHGQPPPSVVLPIPRPPITQSSLINSRDQPGTSAVPNLASVGTRLPPPLPQNLLYTVSERQPMYSREHGAAASERLQLGTPPPLLAARLVPPRNLMGSSIGYHTSVSSPTPLVPDTYEPDGYNPEAPSITSSGRSQYRQFFSRTQTQRPNLIGLTSGDMDVNPRAANIVIQTEPPVPVSINSNITRVVLEPDSRKRAMSGLEGPLTKKPWLGKQGNNNQNKPGFLRKNQYTNTKLEVKKIPQELNNITKLNEHFSKFGTIVNIQVAFKGDPEAALIQYLTNEEARKAISSTEAVLNNRFIRVLWHRENNEQPTLQSSAQLLLQQQQTLSHLSQQHHHLPQHLHQQQVLVAQSAPSTVHGGIQKMMSKPQTSGAYVLNKVPVKHRLGHAGGNQSDASHLLNQSGGAGEDCQIFSTPGHPKMIYSSSNLKTPSKLCSGSKSHDVQEVLKKKQEAMKLQQDMRKKRQEVLEKQIECQKMLISKLEKNKNMKPEERANIMKTLKELGEKISQLKDELKTSSAVSTPSKVKTKTEAQKELLDTELDLHKRLSSGEDTTELRKKLSQLQVEAARLGILPVGRGKTMSSQGRGRGRGRGGRGRGSLNHMVVDHRPKALTVGGFIEEEKEDLLQHFSTANQGPKFKDRRLQISWHKPKVPSISTETEEEEVKEEETETSDLFLPDDDDEDEDEYESRSWRR
B4: LUZP4 (endogenous) (protein, UniProt Q9P127 1-313)
chain: MASFRKLTLSEKVPPNHPSRKKVNFLDMSLDDIIIYKELEGTNAEEEKNKRQNHSKKESPSRQQSKAHRHRHRRGYSRCRSNSEEGNHDKKPSQKPSGFKSGQHPLNGQPLIEQEKCSDNYEAQAEKNQGQSEGNQHQSEGNPDKSEESQGQPEENHHSERSRNHLERSLSQSDRSQGQLKRHHPQYERSHGQYKRSHGQSERSHGHSERSHGHSERSHGHSERSHGHSKRSRSQGDLVDTQSDLIATQRDLIATQKDLIATQRDLIATQRDLIVTQRDLVATERDLINQSGRSHGQSERHQRYSTGKNTITT
B5: SARNP (endogenous) (protein, UniProt P82979 1-210)
chain: MATETVELHKLKLAELKQECLARGLETKGIKQDLIHRLQAYLEEHAEEEANEEDVLGDETEEEETKPIELPVKEEEPPEKTVDVAAEKKVVKITSEIPQTERMQKRAERFNVPVSLESKKAARAARFGISSVPTKGLSSDNKPMVNLDKLKERAQRFGLNVSSISRKSEDDEKLKKRKERFGIVTSSAGTGTTEDTEAKKRKRAERFGIA

Chains of the proteins cited; added tags and fusions are not shown.
UniProt Q13838: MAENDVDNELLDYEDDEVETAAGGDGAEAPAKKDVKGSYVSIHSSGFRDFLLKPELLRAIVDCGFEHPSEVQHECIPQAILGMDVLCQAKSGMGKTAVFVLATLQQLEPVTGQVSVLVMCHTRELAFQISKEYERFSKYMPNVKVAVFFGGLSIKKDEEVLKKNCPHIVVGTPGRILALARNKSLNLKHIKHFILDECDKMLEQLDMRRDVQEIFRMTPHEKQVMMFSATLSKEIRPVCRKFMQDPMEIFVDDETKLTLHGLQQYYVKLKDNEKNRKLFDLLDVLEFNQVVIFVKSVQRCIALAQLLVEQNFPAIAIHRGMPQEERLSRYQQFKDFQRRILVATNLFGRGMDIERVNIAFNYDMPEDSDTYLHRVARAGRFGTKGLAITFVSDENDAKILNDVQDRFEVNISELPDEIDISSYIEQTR
UniProt Q9H814: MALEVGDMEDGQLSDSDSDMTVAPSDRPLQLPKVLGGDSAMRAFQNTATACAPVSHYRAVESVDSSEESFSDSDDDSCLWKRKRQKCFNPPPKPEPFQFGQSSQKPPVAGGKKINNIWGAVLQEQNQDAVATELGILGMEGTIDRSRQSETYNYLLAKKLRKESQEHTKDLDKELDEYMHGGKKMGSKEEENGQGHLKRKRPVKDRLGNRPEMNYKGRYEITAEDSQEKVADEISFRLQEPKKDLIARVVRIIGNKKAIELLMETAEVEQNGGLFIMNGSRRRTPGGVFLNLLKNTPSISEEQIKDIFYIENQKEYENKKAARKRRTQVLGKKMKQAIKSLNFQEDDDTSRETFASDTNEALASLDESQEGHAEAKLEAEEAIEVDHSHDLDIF

These are yes or no findings as the source states them, for the method shown. In cells and extracts the contact can be indirect. These calls come from enrichment with a bait or labelling near it, and not all partners need be listed.

The first assay deals with GFP-UAP56 (endogenously tagged EGFP-3C-DDX39B) (human (endogenous in K562)) (UniProt Q13838). Nature of the assay: affinity purification with mass spectrometry.
In the case of B1, the binding result is “binds”.

Take B2: the binding result was “binds”.

As for B3, the binding entry is on record as “binds”.

As to B4, the binding result is given as “binds”.

B5: the binding result is recorded as “binds”.

Another assay has the same target. Nature of the assay: affinity purification with mass spectrometry. The source holds these as a separate data set.
For the molecule “PHAX (endogenous) (from UniProt Q9H814 1-394)”, the binding entry is “binds”.

(Values after doi:10.1101/2024.03.24.586400 (bioRxiv, 2024).)
